# Results as given in US20220040316A1, “TRIPLE COMBINATION THERAPIES FOR TARGETING MITOCHONDRIA AND KILLING CANCER STEM CELLS” (LUNELLA BIOTECH, INC., priority 2018, published 2022).
# At least one compound was matched to its structure with a doubt left.
# Test system: MCF7 cells
# Assay: Mammosphere formation assay (MFE, CSC propagation) in MCF7 cells
# Format: cell-based, human
smiles,measurement,setting,value
C[C@H]1c2cccc(O)c2C(=O)C2=C(O)[C@]3(O)C(=O)C(C(N)=O)=C(O)[C@@H](N(C)C)[C@@H]3[C@@H](O)[C@@H]21 [doxycycline],effect in the mammosphere assay,"MCF7, 2.5 μM",little or no effect
same,inhibition of mammosphere formation,drug alone at low concentrations (0.1 μM and 1 μM),little or no effect
